Experimental findings from paper PMC5082931 are described below.

Chains of the proteins cited; added tags and fusions are not shown. Lines headed by an entry give the natural chain unless they say otherwise; changes in a name come on top. A line that says so, or that is headed by a name, gives the form on record, which may keep a tag or linker. Residues count along the entry.
UniProt P33176: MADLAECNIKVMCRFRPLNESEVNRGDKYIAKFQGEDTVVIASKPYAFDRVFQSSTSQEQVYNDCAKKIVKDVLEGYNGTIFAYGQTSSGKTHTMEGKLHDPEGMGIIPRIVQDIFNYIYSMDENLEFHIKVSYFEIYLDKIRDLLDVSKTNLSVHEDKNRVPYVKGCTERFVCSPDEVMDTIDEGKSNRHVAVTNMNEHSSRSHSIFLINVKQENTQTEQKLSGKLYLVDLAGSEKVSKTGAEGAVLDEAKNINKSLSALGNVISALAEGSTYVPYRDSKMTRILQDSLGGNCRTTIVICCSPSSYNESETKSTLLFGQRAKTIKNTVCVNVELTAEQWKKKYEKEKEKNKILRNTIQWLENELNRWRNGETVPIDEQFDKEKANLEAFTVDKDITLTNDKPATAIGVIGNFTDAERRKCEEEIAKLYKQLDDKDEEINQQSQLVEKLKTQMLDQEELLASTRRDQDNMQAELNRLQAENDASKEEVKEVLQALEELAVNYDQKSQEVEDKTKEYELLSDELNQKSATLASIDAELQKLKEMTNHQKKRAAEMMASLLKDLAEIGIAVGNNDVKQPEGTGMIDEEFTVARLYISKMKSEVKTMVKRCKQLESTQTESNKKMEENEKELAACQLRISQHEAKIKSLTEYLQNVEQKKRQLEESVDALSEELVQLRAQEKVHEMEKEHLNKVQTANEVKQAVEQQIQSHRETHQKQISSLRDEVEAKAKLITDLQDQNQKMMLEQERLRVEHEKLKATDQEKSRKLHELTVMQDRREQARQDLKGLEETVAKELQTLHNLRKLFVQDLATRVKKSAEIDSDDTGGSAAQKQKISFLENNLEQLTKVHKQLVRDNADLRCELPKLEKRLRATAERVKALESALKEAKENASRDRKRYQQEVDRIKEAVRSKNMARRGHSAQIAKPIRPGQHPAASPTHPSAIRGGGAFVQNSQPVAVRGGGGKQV
P75-RFP (RFP-tagged P75 neurotrophin receptor) (P08138, residues 29-427): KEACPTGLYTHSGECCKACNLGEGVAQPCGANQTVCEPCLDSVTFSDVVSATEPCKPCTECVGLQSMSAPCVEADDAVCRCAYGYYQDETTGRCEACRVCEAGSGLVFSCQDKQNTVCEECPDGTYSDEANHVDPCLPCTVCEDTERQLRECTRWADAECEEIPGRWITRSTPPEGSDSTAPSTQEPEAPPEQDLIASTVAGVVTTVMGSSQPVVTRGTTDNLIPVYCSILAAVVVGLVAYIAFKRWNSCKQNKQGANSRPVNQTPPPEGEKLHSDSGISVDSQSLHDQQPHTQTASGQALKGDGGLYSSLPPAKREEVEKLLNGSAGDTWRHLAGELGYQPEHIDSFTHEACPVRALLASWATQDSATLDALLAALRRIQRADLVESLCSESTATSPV
P75-RFP ^(Y/F) (P08138, form named): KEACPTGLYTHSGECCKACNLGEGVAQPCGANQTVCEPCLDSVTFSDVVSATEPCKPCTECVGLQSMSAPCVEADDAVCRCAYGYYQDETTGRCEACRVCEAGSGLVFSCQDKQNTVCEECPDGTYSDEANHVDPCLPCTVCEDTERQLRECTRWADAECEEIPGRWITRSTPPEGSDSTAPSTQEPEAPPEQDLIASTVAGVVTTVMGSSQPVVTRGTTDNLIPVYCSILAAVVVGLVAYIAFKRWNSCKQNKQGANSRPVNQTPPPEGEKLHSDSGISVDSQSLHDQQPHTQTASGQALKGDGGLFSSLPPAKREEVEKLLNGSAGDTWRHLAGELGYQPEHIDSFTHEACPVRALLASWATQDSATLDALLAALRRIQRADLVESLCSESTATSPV
P75-RFP^(Y/E) (P08138, form named): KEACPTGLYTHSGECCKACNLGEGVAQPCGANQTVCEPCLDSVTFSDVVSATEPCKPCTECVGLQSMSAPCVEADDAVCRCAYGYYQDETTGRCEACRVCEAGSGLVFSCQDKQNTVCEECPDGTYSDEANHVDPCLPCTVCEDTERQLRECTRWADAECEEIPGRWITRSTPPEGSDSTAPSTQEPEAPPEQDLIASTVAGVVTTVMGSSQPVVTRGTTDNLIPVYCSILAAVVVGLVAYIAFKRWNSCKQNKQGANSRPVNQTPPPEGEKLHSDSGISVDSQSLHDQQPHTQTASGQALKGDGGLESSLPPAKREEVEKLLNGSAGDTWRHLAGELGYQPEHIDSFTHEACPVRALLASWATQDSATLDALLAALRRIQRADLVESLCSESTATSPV
UniProt Q12756: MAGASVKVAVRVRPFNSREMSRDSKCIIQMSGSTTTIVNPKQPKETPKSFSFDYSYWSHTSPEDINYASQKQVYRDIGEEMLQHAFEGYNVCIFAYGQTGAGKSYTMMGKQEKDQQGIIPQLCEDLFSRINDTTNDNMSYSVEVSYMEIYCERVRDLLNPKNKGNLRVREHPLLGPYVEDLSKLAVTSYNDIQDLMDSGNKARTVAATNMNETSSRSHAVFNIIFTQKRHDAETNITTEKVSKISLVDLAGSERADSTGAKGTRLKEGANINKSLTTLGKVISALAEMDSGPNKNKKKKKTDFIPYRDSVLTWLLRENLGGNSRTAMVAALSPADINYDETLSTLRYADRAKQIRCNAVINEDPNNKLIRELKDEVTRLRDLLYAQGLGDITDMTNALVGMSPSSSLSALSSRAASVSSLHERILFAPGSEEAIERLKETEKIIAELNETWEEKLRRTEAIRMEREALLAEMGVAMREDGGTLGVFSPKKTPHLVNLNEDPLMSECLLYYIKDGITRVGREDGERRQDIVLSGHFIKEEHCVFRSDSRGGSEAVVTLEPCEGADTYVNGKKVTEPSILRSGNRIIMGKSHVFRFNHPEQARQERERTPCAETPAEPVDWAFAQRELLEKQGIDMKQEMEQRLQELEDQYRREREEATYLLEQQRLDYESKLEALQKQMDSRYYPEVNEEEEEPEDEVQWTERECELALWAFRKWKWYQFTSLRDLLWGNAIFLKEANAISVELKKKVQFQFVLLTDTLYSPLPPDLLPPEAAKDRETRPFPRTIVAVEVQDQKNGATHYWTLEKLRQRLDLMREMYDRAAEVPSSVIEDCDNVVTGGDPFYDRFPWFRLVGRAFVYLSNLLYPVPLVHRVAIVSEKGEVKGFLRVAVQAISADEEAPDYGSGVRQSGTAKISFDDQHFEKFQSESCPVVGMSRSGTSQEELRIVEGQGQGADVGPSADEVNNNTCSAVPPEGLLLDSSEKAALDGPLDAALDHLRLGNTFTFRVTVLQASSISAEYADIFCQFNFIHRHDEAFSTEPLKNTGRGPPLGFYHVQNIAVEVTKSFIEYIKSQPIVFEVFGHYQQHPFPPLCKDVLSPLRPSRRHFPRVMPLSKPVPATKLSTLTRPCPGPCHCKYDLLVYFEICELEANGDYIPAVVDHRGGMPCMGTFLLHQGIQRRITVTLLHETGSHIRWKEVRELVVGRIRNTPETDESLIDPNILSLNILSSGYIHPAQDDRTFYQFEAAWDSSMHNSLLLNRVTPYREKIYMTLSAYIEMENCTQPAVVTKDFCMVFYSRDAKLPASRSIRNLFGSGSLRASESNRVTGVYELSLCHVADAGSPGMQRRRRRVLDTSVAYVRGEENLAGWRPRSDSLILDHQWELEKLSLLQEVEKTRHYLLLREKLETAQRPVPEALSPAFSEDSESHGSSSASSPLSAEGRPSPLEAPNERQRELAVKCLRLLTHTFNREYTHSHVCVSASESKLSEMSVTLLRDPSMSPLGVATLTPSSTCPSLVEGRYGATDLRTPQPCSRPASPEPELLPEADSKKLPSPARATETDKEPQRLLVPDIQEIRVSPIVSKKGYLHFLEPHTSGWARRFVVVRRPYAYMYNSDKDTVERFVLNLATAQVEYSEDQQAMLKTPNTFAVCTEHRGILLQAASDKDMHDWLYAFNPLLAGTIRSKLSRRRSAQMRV
UniProt O88448: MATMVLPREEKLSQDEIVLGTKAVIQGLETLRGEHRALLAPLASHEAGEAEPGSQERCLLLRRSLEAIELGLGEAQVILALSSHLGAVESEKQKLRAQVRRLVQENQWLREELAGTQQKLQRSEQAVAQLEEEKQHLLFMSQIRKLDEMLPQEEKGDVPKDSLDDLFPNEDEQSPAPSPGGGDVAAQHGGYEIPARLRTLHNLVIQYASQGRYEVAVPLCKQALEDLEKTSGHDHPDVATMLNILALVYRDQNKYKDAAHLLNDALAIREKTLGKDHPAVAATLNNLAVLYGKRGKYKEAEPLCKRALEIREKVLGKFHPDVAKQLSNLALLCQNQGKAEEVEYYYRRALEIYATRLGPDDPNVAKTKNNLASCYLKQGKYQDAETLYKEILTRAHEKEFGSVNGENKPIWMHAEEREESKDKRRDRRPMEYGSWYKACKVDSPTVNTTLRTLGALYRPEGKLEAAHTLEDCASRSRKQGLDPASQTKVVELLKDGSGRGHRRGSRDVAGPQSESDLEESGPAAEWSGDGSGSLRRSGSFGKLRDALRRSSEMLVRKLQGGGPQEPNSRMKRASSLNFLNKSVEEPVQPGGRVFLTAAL

Test [1] concerns the target YFP-Kif5B (UniProt P33176). The test can be described thus: co-IP; HEK293 cells co-transfected with YFP-Kif5B and HA-tagged Fat3 or RFP-tagged P75^NTR constructs; YFP-Kif5B precipitated with goat anti-GFP antibodies, overnight at 4°C, lysis buffer 50mM Tris-HCl pH 8.0, 150mM NaCl, 1mM EDTA, 1% NP-40, 10% glycerol; non-specific IgG as control.
The target of test [2] is P75-GFP phosphorylated at Y-308 (from pervanadate-treated HEK293 cells) (human) (UniProt P08138). Briefly: co-IP; HEK293 cells transfected with P75-GFP constructs, serum-deprived for 24 hours and exposed to 30μM pervanadate for 30 min; P75-GFP precipitated with goat anti-GFP antisera, Western blot for endogenous Kif5B.
For test [3], the target named is T1, GST-Fat3 (GST fused to the intact cytoplasmic domain of Fat3) (mouse) (UniProt Q8BNA6).
T1 sequence: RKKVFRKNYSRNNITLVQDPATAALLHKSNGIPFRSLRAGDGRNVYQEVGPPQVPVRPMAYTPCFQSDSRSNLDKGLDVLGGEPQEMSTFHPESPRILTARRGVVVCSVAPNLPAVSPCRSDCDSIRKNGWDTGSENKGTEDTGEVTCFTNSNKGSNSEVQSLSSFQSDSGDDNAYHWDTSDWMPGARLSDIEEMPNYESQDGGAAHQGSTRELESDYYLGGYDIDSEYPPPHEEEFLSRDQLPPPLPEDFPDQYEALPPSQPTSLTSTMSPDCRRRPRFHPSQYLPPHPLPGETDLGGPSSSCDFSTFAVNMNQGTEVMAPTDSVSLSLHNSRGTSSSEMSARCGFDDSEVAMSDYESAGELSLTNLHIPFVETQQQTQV
Briefly: pull-down; GST-Fat3 fusion proteins expressed in HEK293 cells, cleared lysate (20mM Tris-HCl pH 8.0, 137mM NaCl, 2mM EDTA, 1% NP-40, 10% glycerol) on Glutathione Sepharose 4B for 2h at 4°C; endogenous co-purified proteins seen by silver staining (band identified by tandem mass spectrometry) and by Western ….

In test [4] the target is T1, GST-Fat3 (GST fused to the intact cytoplasmic domain of Fat3) (mouse). Briefly: pull-down; HEK293 cells co-transfected with mCherry-KLC2 and GST-Fat3 fusion proteins; GST pull-down, Western blot with dsRed antibodies. (In general: Immunoblotting shows a protein as a band on a membrane.)

Results are given in words; binding and its absence hold for the method and conditions named. Binding seen in cells or lysates may run through a third protein. Some entries that bind do so weakly or less than the wild type. For some of these results: Sequences can lack the tags named with a protein.

With “P75-RFP ^(Y/F) (from UniProt P08138 29-427) (receptor)”, the binding result in test [1] was “binds”.
In the case of “Kif5B (endogenous, HEK293 cells) (from UniProt P33176 1-963)”, the binding result in test [2] and in test [3] was “binds” throughout.
With “Kif1A (endogenous, HEK293 cells) (from UniProt Q12756 1-1690)”, the binding entry in test [3] is on record as “no binding”.
On to “P75-RFP (RFP-tagged P75 neurotrophin receptor) (from UniProt P08138 29-427)”, for which the binding result in test [1] is on record as “binds”.
Take “P75-RFP^(Y/E) (from UniProt P08138 29-427) (receptor)”: the binding entry in test [1] is on record as “binds”.
In the case of “mCherry-KLC2 (from UniProt O88448 1-599)”, the binding result in test [4] is “binds”.
